Laboratory results from PubChem BioAssay AID1688 (National Center for Advancing Translational Sciences (NCATS), 2009).
About 2,400 (1.1%) of roughly 220,000 compounds were called active. Inconclusive results, whose numbers are uncertain, are shown with a selection of clear calls. The call rests on the fitted dose curve; in most records, active means well fitted inhibition curve with a large enough effect; inconclusive means small, poorly fitted or top-dose-only effect, or effect the other way; inactive means no such curve, though single readings can be large or run the other way. A potency beside an inconclusive call is a rough fit, not a confirmed value.

Test: qHTS Multiplex Assay to Identify Dual Action Probes in a Cell Model of Huntington: Aggregate Formation (GFP); further: nearly all actives have a fitted effect of over 60% in size
Settings: PC12 HttQ103-GFP aggregates, Acumen cytometry, 40 h; activity change, negative = inhibition: at 46.1 µM (top of the series) unless noted
In short: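 Read-out: GFP aggregate count by laser scanning cytometer (488 nm excitation, 500-530 nm emission, 1–25 µm objects >6 SD above background). Cells: PC12, inducible HTTex1-Q103-GFP, 100 nM tebufenozide; compounds titrated.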
On the % scale 0 is the no-effect control and ±100 the full control effect; potency means the concentration at half of the fitted maximal effect.

Row | SMILES | Potency | activity change, negative = inhibition
1 | Cc1nn(-c2ccccc2)c(Cl)c1C(=O)Nc1nnc(C2CCCC2)s1 | inconclusive: 0.199 µM [inhibitor, partial curve] | 
2 | CCOC(=O)CSc1[nH]c2cc(OC)ccc2c1[N+](=O)[O-] |  | inactive: 23.8% [at 9.22 µM]
3 | CCN(C(=O)c1coc(=O)c2ccccc12)c1cc(OC)ccc1OC | inactive | 
4 | COc1ccccc1Nc1nc(-c2sc(NC(=O)CC(C)C)nc2C)cs1 | inactive | 
5 | c1ccc(CSc2ccc(-c3cccs3)nn2)nc1 | active: 0.0316 µM | 
6 | N#Cc1ncc(-c2ccc3c(c2)OCCOCCOCCOCCOCCO3)nc1C#N | inconclusive: 35.5 µM [inhibitor, single point] | 
7 | Cc1c(Cl)ccc2c1NC(=O)[C@]21N[C@@H](CCC(N)=O)[C@H]2C(=O)N(c3ccc(F)cc3)C(=O)[C@H]21 | inactive | 
8 | COc1ccc(C(NC(C)=O)c2cc(Cl)c3cccnc3c2O)cc1OC (stereo not drawn) | inconclusive: 1 µM [inhibitor, full curve] | 
9 | CCCCOc1ccc(-c2nc(-c3cccnc3)no2)cc1 | inconclusive: 35.5 µM [inhibitor, single point] | 
10 | O=C(NC(=S)Nc1ccccc1N1CCOCC1)c1cccs1 | inconclusive: 7.94 µM [inhibitor, partial curve] | 
11 | COc1cc(OC)cc(-c2nnc(SCC(=O)N3CCOCC3)o2)c1 | inactive | 
12 | COc1ccc(C)cc1S(=O)(=O)N(CC(=O)NCc1ccc(Cl)cc1)Cc1ccccc1 | active: 28.2 µM | 
13 | CC1(C)Cc2c(c(N3CCOCC3)nc3sc4c(NN)ncnc4c23)CS1 | inconclusive: 22.4 µM [inhibitor, single point] | 
14 | CCN(CC)S(=O)(=O)c1ccc(C)c(NS(=O)(=O)c2cc(/C=C/C(=O)O)cc(OC)c2OC)c1 | inactive | 
15 | CCOC(=O)c1cnc(-n2nc(C)cc2C)nc1NNc1cc(C)nc(-c2ccccc2)n1 | inconclusive: 20 µM [inhibitor, partial curve, poor fit] | 
16 | Fc1c(CSC(=S)N2CCOCC2)cccc1CSC(=S)N1CCOCC1 |  | inactive: -0.662% [at 9.22 µM]
17 | NC(=O)COC(=O)c1ccc(Cl)c(S(=O)(=O)N2CCN(c3ccc(F)cc3)CC2)c1 | inconclusive: 35.5 µM [activator, single point] | 
18 | COc1ccc(Br)cc1C(=O)Nc1ccc(NC(=O)c2ccco2)cc1 | inconclusive: 35.5 µM [activator, single point] | 
19 | COc1ccc(OCC(O)CNc2ccc(Br)cc2)cc1 (stereo not drawn) | inconclusive: 35.5 µM [inhibitor, single point] | 
20 | O=C(O)c1ccc(CN2CCOCC2)o1 | inconclusive: 0.708 µM [inhibitor, single point] | 
21 | Cc1cc2occ(CC(=O)Nc3nccs3)c2cc1C(C)C | inconclusive: 4.47 µM [inhibitor, full curve, poor fit] | 
22 | CN1CCc2c(OCC(=O)N3CCC(Cc4ccccc4)CC3)cccc2C1=O | inconclusive: 15.8 µM [inhibitor, partial curve] | 
23 | Cc1ccc(Sc2ccc(/C=N/O)cc2[N+](=O)[O-])cc1 | inconclusive: 35.5 µM [inhibitor, single point] | 

3 structures already listed, sorted by molecular weight, largest number first.
Row | SMILES | Potency | activity change, negative = inhibition
6 | N#Cc1ncc(-c2ccc3c(c2)OCCOCCOCCOCCOCCO3)nc1C#N | inconclusive: 35.5 µM [inhibitor, single point] | 
8 | COc1ccc(C(NC(C)=O)c2cc(Cl)c3cccnc3c2O)cc1OC (stereo not drawn) | inconclusive: 1 µM [inhibitor, full curve] | 
23 | Cc1ccc(Sc2ccc(/C=N/O)cc2[N+](=O)[O-])cc1 | inconclusive: 35.5 µM [inhibitor, single point] | 

(cont.)

Row | SMILES | Potency | activity change, negative = inhibition
24 | COc1cc(/C=N/N2CCN(C3c4ccccc4-c4ccccc43)CC2)ccc1O | inconclusive: 25.1 µM [activator, single point] | 
25 | CC1CCCCC1NCC(=O)Nc1ccccc1-c1ccccc1 (stereo not drawn) | inconclusive: 35.5 µM [inhibitor, single point] | 
26 | Cc1cc(NC(=O)c2cc(-c3ccccc3C)nc3ccccc23)no1 | inconclusive: 0.631 µM [inhibitor, full curve] | 
27 | COc1cc(-c2nc3cnccn3c2Nc2ccc3c(c2)OCCO3)ccc1O | inconclusive: 7.94 µM [activator, partial curve] | 
28 | CCC(Oc1ccccc1)C(=O)Nc1nnc(C(F)(F)F)s1 (stereo not drawn) | active: 25.1 µM | 
29 | O=C(COc1c(Br)cc(Br)c2cccnc12)N1CCc2ccccc2C1 | inconclusive: 12.6 µM [inhibitor, single point] | 
30 | CC(C)CCn1c(-c2nonc2N)nc2ccccc21 | active: 11.2 µM | 
31 | COc1cccc(C(=O)Nc2nc(-c3ccc(S(=O)(=O)N4CCOCC4)cc3)cs2)c1 | inconclusive: 35.5 µM [inhibitor, single point] | 
32 | O=C1NCCc2c1[nH]c1ccccc21 | inconclusive: 5.01 µM [inhibitor, partial curve] | 
33 | COC(=O)/C=C1/N/C(=N\c2nc(C)cc(C)n2)N(c2ccc(Cl)cc2)C1=O | inconclusive: 11.2 µM [activator, partial curve] | 
34 | CCOc1ccc(NC(=O)C(C)Oc2ccccc2C(=O)Nc2ccc(C)c(Cl)c2)cc1 (stereo not drawn) | inconclusive: 35.5 µM [inhibitor, single point] | 
35 | CCCCN(CC)C(=O)CSc1nc2ccccc2c(=O)n1CC1COc2ccccc2O1 (stereo not drawn) | inconclusive: 35.5 µM [inhibitor, single point] | 
36 | CC(NC(=O)C(=O)NCCC1=CCCCC1)c1ccccc1 (stereo not drawn) | inactive | 
37 | CCOc1ccc(CN2CCN(CC(O)Cn3c4ccccc4c4ccccc43)CC2)cc1 (stereo not drawn) | inconclusive: 35.5 µM [inhibitor, single point] | 
38 | Cc1ccc2occ(C3N[C@H](C(=O)O)CS3)c(=O)c2c1 (stereo partly drawn) | inactive | 
39 | O=C(CCn1cnc(-c2ccccc2)c1-c1ccccc1)N/N=C/c1ccccc1O | inconclusive: 11.2 µM [inhibitor, partial curve] | 
40 | CC[C@H](NC(C)C)[C@H](O)c1ccc(O)c(O)c1 | inactive | 
41 | Cc1cc(N(C)C)ccc1N=Nc1ccc2ncccc2c1 |  | inactive: -9.85% [at 9.22 µM]
42 | O=S(=O)(c1ccc(Cl)c(Cl)c1)c1snnc1-c1ccccc1 | inconclusive: 35.5 µM [inhibitor, single point] | 
43 | CC(=O)Nc1nonc1-c1nc2ccccc2n1Cc1ccccc1 | inconclusive: 7.94 µM [activator, partial curve] | 
44 | O=C(CNS(=O)(=O)c1ccccc1)NCC(=O)OCc1ccc(C(=O)c2ccccc2)cc1 | inactive | 
45 | Cc1ccccc1C(=O)NNC(=S)NC(=O)c1ccc(Cl)cc1Cl | inconclusive: 25.1 µM [inhibitor, single point] | 
46 | O=C(Nc1cccnc1)c1cnn2cccnc12 | inconclusive: 2.24 µM [activator, partial curve] | 

Row | SMILES | Potency | activity change, negative = inhibition
47 | CCCCCCCC(=O)NNC(=O)c1c(O)c2ccccc2n(CCC)c1=O | inconclusive: 15.8 µM [inhibitor, single point] | 
48 | CCCNC(=O)c1c(N)n(-c2cccc(OC)c2)c2nc3ccccc3nc12 | inconclusive: 35.5 µM [inhibitor, single point] | 
49 | O=C(Nc1ccccc1)c1ccncc1 | inconclusive: 3.55 µM [inhibitor, partial curve] | 
50 | Clc1ccc(C2=C3CCCCn4c(-c5ccccc5)c[n+](c43)C2)cc1 | inconclusive: 35.5 µM [inhibitor, single point] | 
51 | COc1cccc2c3c(c(C)nc12)CCN3c1ccccc1 | inconclusive: 35.5 µM [inhibitor, single point] | 
52 | CC(C)c1ccc(NC(=S)NCc2cccs2)cc1 | inconclusive: 35.5 µM [inhibitor, single point] | 
53 | Cc1ccc(C2(c3ccc(C)cc3)NC(=O)N(Cc3c(C)noc3C)C2=O)cc1 | inconclusive: 10 µM [activator, partial curve] | 
54 | O=C(NC1CCCc2ccccc21)C1CCC(CNc2c(N3CCOCC3)c(=O)c2=O)CC1 (stereo not drawn) | inconclusive: 22.4 µM [activator, single point] | 
55 | C/C(CC(C)(C)c1ccccc1)=N\NS(=O)(=O)c1ccccc1 | inconclusive: 10 µM [activator, partial curve, poor fit] | 
56 | CCOc1ccccc1N1CCN(Cc2cccc(OC)c2OC)CC1 | inactive | 
57 | COc1ccc(CNc2nc(C)c([N+](=O)[O-])c(C)c2C#N)cc1 | inconclusive: 31.6 µM [activator, single point] | 
58 | COc1ccc(C2C(C(=O)N3CCCCC3)CC(=O)N2c2ccc(OC)cc2)cc1 (stereo not drawn) | inactive | 
59 | CCCNNC(=O)C(O)(c1ccccc1)c1ccccc1 | inconclusive: 2 µM [inhibitor, single point] | 
60 | Cc1ccc2cc(CCNC(=O)C3CCCC3)c(=O)[nH]c2c1 | inconclusive: 1.26 µM [activator, single point] | 
61 | O=Cc1[nH]c2ccccc2c1N(C(=O)CCl)c1ccc([N+](=O)[O-])cc1 |  | inactive: -1.25% [at 9.22 µM]
62 | Cc1nn(C(C)C(=O)NNC(=S)Nc2ccc(Cl)cc2)c(C)c1[N+](=O)[O-] (stereo not drawn) | inconclusive: 0.631 µM [inhibitor, full curve] | 
63 | O=C(NCc1ccc2c(c1)OCO2)C1CCN(S(=O)(=O)c2ccc(Br)s2)CC1 | inactive | 
64 | COc1cccc(C(=O)Nc2cc([N+](=O)[O-])ccc2N2CCN(C)CC2)c1 | inconclusive: 22.4 µM [activator, partial curve] | 
65 | O=c1c2c3c(sc2nc(NCCO)n1CCc1ccccc1)CCCCC3 | inactive | 
66 | CCCCC1=CC2=CC(=O)C(C)(OC(=O)CC)C(=O)C2=CN1Cc1ccco1 (stereo not drawn) |  | inactive: 9.58% [at 9.22 µM]
67 | O=C(NCC1CCCO1)C(c1cccs1)N(Cc1cccs1)C(=O)c1ccc(-c2ccccc2)[nH]1 (stereo not drawn) | inconclusive: 35.5 µM [inhibitor, single point] | 
68 | COCCCNC(=O)c1ccc(N2CCCC2)c(NS(=O)(=O)c2ccc(C)cc2)c1 | inconclusive: 35.5 µM [activator, single point] | 

A different layout for part of the listing above:
Row	SMILES	Potency	activity change, negative = inhibition
54	O=C(NC1CCCc2ccccc21)C1CCC(CNc2c(N3CCOCC3)c(=O)c2=O)CC1 (stereo not drawn)	inconclusive: 22.4 µM [activator, single point]	
55	C/C(CC(C)(C)c1ccccc1)=N\NS(=O)(=O)c1ccccc1	inconclusive: 10 µM [activator, partial curve, poor fit]	
